In PubChem BioAssay AID1347423 (Functional Genomics Laboratory (NCATS/FGL), 2020):
The whole screen tested about 52,000 sequences, of which about 210 (0.4%) were called active.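 How the source made its calls: active means gene whose silencing raises cell survival under the drug, median off-target-corrected z-score across its silencing RNAs 2 or more; inactive means the rest.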 The list shows a part of the results.

Experiment: Resistance to Poly (ADP-Ribose) Polymerase inhibitor: Gene Identification via Genome-wide siRNA Screen
Settings: mouse BRCA2 R2336H ES cells, olaparib, CellTiter-Glo viability; hits give high values
How it was run: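 Mouse BRCA2 R2336H ES cells were reverse-transfected with siRNA (20 nM final), treated at 48 h with 500 nM olaparib, and read by CellTiter-Glo after 72 h. Scores: MAD-based z per siRNA, median per gene, seed off-target correction.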

Q: Which z-score does the source give for GGAAGAACUAGAAGAAAAUTT against Vdp here?
A: The z-score was inactive: 0.336.

Q: Which z-score does the source give for CCUUGAUGGUAAAUACUCATT against V1rh3 here?
A: Its z-score is inactive: -1.27.

Q: For GGCAUUGCACAAAAUCUAATT against BC026439, which z-score is on record?
A: Its z-score is inactive: 0.359.

Q: With GGACACAUGGAUGGAAUGUTT against Cd5l as the sequence, how does the z-score read?
A: The z-score was inactive: 2.12.

Q: With GGACAAUGCUAAUGAGACCTT against Gcet2 as the sequence, how does the z-score read?
A: The z-score was inactive: -0.588.

Q: For GCGAGUAGGACCAGUGAAATT against Xpo1, which z-score is on record?
A: The z-score was inactive: -2.67.

Q: For GGCAUUAGAGACAGACUGGTT against Phca, which z-score is on record?
A: The z-score was inactive: -0.346.

Q: Which z-score does the source give for GGCCUCUUAUAUAGAAUAATT against Polr3f here?
A: The z-score was inactive: -0.917.

Q: With GGUGAGACAUUUCAAGAAATT against Ndufb2 as the sequence, how does the z-score read?
A: The z-score was inactive: 1.66.

Q: With GGAGACGUGGGAAAAGCUATT against Gucy1b2 as the sequence, how does the z-score read?
A: The z-score was inactive: 0.737.

Q: Which z-score does the source give for GGCUUAUCGAUCGACAGUUTT against Nup155 here?
A: Its z-score is inactive: -1.7.

Q: With “GGAAAGUUGAAGAUUAAAGTT against 2610207I16Rik” as the sequence, how does the z-score read?
A: Its z-score is inactive: 0.783.

Q: Which z-score does the source give for GGAGAAUGACCAGCUGAUCTT against Deb1 here?
A: The z-score was inactive: 0.39.

Q: Which z-score does the source give for GGAUCAUUUCCUAGGACUGTT against Cox15 here?
A: The z-score was inactive: -0.164.

Q: Which z-score does the source give for GGAAGCUUCAAGCCAUGGUTT against Creb3 here?
A: The z-score was inactive: 1.14.

Q: For “GGAUGAAGAUACAGAGGUATT against 4933400C05Rik”, which z-score is on record?
A: The z-score was inactive: -2.47.

Q: Which z-score does the source give for GCAACGCAGUACUCUACCCTT against Tenc1 here?
A: Its z-score is inactive: 0.502.

Q: Which z-score does the source give for GGCUAUCACACAGCAUAGATT against Rdh7 here?
A: The z-score was inactive: 0.208.

Q: With GCCUUAGGUUGAUAGGAGGTT against Tas2r110 as the sequence, how does the z-score read?
A: The z-score was inactive: -0.159.

Q: For GGUUUAUUGACCAUCUAAUTT against Ttc4, which z-score is on record?
A: Its z-score is inactive: 0.0667.

Q: Which z-score does the source give for GCUCGCCUGCAUUUCAUCATT against Pank4 here?
A: Its z-score is inactive: 1.53.

Q: With CCACGGUCUCUUAUUUAUGTT against Pim3 as the sequence, how does the z-score read?
A: The z-score was inactive: 0.219.

Q: For “GGUCGAGACUCCAUCAUAATT against 8430408H12Rik”, which z-score is on record?
A: Its z-score is inactive: -1.81.

Q: Which z-score does the source give for CCUACACAACCGUGUUCAATT against Gtf3a here?
A: Its z-score is inactive: -0.792.

Q: Which z-score does the source give for GCACCCUUGAGAAAUCCAATT against Cfdp1 here?
A: The z-score was inactive: 0.385.

Q: For GGAACUAACAUCACACCGATT against Lmtn, which z-score is on record?
A: The z-score was inactive: 2.24.

Q: For GGAGACCUUUGCUCAUCUCTT against Hbb-bh1, which z-score is on record?
A: The z-score was inactive: -0.464.

Q: With GCUACGUUUUUUACCUCCATT against Bak1 as the sequence, how does the z-score read?
A: The z-score was inactive: -0.165.

Q: With GGUUAACAUCACUCUGUCUTT against Ntng1 as the sequence, how does the z-score read?
A: Its z-score is inactive: -2.37.

Q: For GCGAGUGGACCUGUUUUACTT against Btc, which z-score is on record?
A: Its z-score is inactive: -0.444.

Q: For GGCUGCUAACAAAGACAACTT against Ift172, which z-score is on record?
A: The z-score was inactive: -0.0185.

Q: For GGUUCUGUGUAUGGAUUAUTT against Fzd5, which z-score is on record?
A: Its z-score is inactive: 0.754.

Q: For GUCAGUGGGCUUCUCAGAUTT against Pxmp2, which z-score is on record?
A: Its z-score is inactive: 0.975.

Q: For GCCUAUGUAAAUAGUGCUGTT against Mt3, which z-score is on record?
A: Its z-score is inactive: -0.0187.

Q: For GGAAGACAUAAUAAUAGAGTT against Rad17, which z-score is on record?
A: The z-score was inactive: -0.164.

Q: With CCACCUGUCUUGAAAAUUGTT against Edg5 as the sequence, how does the z-score read?
A: Its z-score is inactive: 1.49.

Q: With “GCGAACCAAACUUGCAUAUTT against D6Ertd365e” as the sequence, how does the z-score read?
A: The z-score was inactive: -1.33.

Q: Which z-score does the source give for GGAAAGUGUGUUCAUUAGUTT against Pla2g2d here?
A: The z-score was inactive: -0.775.

Q: For GCCGUUUUAUGUGGCAGAATT against Slc35d3, which z-score is on record?
A: Its z-score is inactive: -1.67.

Q: Which z-score does the source give for “GGAAACAUGGCAUCAAGACTT against 1110059G10Rik” here?
A: The z-score was inactive: 1.63.

Q: Which z-score does the source give for GCCGCUUAGUUCUGUUUUATT against Clcn5 here?
A: The z-score was inactive: 1.06.

Q: For “CCCUCUGGUUCUAGCUGUUTT against 2600003E23Rik”, which z-score is on record?
A: The z-score was inactive: -0.49.

Q: Which z-score does the source give for GGAAAGAAUUGGAUGACUATT against BC051070 here?
A: Its z-score is inactive: -0.225.

Q: With “GCUCAUUUUAGGCAAAAGATT against A630065K24Rik” as the sequence, how does the z-score read?
A: The z-score was inactive: 0.0647.

Q: Which z-score does the source give for GGCCAUGGAAGCUGUUGCUTT against Pgam2 here?
A: The z-score was inactive: 0.16.

Q: With CCACUGUCCCUAAGGUACUTT against Olfr161 as the sequence, how does the z-score read?
A: The z-score was inactive: 1.98.

Q: For GGAUUCAUGAUUAUCUUUCTT against Olfr790, which z-score is on record?
A: The z-score was inactive: 0.00848.

Q: For GGAGGCACACCUGAAACAUTT against Cacna2d3, which z-score is on record?
A: Its z-score is inactive: 1.04.

Q: For GGCUUUCAAGAGCAAUCCCTT against Man2b2, which z-score is on record?
A: Its z-score is inactive: 0.33.

Q: Which z-score does the source give for “GGAUAACUCUUUCAAAGACTT against A930010E21Rik” here?
A: Its z-score is inactive: 0.12.

Q: With GGCUCGAGUUCAACCUAAUTT against Arih2 as the sequence, how does the z-score read?
A: Its z-score is inactive: -0.000943.

Q: For “GGUCCAUUAUCGAUUUCAUTT against 5730403M16Rik”, which z-score is on record?
A: The z-score was inactive: -0.497.

Q: With CGGGAAUACGCUACGAACATT against Hoxa13 as the sequence, how does the z-score read?
A: Its z-score is inactive: -1.12.

Q: Which z-score does the source give for “GCUGGAUGGCCGUUUCAAATT against 4931417G12Rik” here?
A: Its z-score is inactive: 1.83.

Q: Which z-score does the source give for GGAGCAGAUGCUAACUGUGTT against Zfp29 here?
A: The z-score was inactive: 0.532.

Q: With GGAAUUAUGAACAAAUUGCTT against H2-M9 as the sequence, how does the z-score read?
A: Its z-score is inactive: 0.21.

Q: With GGCUUCCUGACUGUUCAGATT against V1rc8 as the sequence, how does the z-score read?
A: Its z-score is inactive: -0.799.

Q: Which z-score does the source give for GCAUGCGACUCUGUUCUCGTT against Gtf2a2 here?
A: The z-score was inactive: -0.0277.

Q: With GGUCACAAUGGUUUAAGGATT against Tacr1 as the sequence, how does the z-score read?
A: The z-score was inactive: -0.553.

Q: For GGUGCUGACUGAGAAGGAGTT against Fdps, which z-score is on record?
A: Its z-score is inactive: -0.631.

Q: Which z-score does the source give for GGGCAAGAUGGUCAGUAGATT against Tpt1 here?
A: Its z-score is inactive: -1.57.

Q: Which z-score does the source give for GGCUUCUACUGAAGAAUCCTT against Gdf9 here?
A: The z-score was inactive: -0.173.

Q: Which z-score does the source give for GCUGCACGGAAACAUGUUUTT against Sirt6 here?
A: The z-score was inactive: 0.773.

Q: With GGAGAAGGAGUUCCUUAUGTT against Ikbkg as the sequence, how does the z-score read?
A: The z-score was inactive: -0.341.

Q: With GCUCAAGAGUCUAACUCCCTT against LOC574418 as the sequence, how does the z-score read?
A: The z-score was inactive: 0.00955.

Q: For CGGAACACUUUAGAAUCUATT against LOC432582, which z-score is on record?
A: Its z-score is inactive: 0.927.

Q: Which z-score does the source give for GGGACCUAAAGUCACAGUCTT against Ppib here?
A: Its z-score is inactive: 0.215.
